Reference: PubChem BioAssay AID1671190 (National Center for Advancing Translational Sciences (NCATS), 2021)
Values joined by “and” are separate entries in the source; they are usually repeats but may differ in a detail not shown here. Equal values may be shown once. Screen size: about 580,000 compounds; about 6,100 (1.1%) were called active. The inconclusive results got no clear call from the source; some entries with a clear call stand among them for comparison. The call rests on the fitted dose curve; in most records, active means well fitted inhibition curve with a large enough effect; inconclusive means small, poorly fitted or top-dose-only effect, or another doubt; inactive means no such curve, though single readings can be large or run the other way. Potencies beside an inconclusive call are fits to weak or partial responses and may not hold up.

The chains behind the UniProt entries cited, without tags or fusion partners. Where a name states a change or a piece, a line headed by the entry shows the natural chain unless it says otherwise.
UniProt P18054: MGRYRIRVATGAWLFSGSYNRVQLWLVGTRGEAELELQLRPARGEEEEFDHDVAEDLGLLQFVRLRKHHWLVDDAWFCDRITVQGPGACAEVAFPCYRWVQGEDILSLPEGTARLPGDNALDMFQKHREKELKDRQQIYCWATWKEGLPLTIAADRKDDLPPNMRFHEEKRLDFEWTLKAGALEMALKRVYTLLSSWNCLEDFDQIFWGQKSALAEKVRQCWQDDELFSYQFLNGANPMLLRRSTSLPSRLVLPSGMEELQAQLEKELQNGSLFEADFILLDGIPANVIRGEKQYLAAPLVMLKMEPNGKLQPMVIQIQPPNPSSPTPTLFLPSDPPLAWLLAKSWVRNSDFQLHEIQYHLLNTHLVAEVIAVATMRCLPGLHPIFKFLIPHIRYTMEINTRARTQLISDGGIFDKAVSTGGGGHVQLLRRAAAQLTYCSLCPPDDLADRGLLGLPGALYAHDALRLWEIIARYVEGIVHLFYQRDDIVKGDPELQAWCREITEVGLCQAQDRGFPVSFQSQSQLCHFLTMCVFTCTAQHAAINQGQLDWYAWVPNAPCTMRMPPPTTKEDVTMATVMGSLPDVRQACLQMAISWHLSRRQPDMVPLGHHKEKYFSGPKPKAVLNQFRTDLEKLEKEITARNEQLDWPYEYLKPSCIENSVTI

What follows are compounds tested against Polyunsaturated fatty acid lipoxygenase ALOX12 (Homo sapiens) (UniProt P18054) (assay: Primary qHTS assay for inhibitors of human arachidonate 12S-lipoxygenase (ALOX12): Round 2). Conditions: purified 12hLO, xylenol orange hydroperoxide absorbance; series mostly up to 108 µM.
In short: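 Purified human 12hLO at 150 nM in 25 mM Hepes, 0.01% Triton X-100, pH 7.0, preincubated 15 min at room temperature with compound. Reaction started with 40 uM arachidonic acid, 30 min at room temperature. Hydroperoxide measured by Fe-xylenol orange, 573/405 nm absorbance ratio.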
Potency means the concentration at half of the fitted maximal effect.

Structure (SMILES) | Potency
COCCOC(=O)C1=C(C)Nc2ncnn2C1c1ccccc1 (stereo unspecified) | inactive
Cc1cccc(S(=O)(=O)Nc2ccncc2)c1 | inconclusive: 15.8 µM [inhibitor, full curve, poor fit]
COc1ccccc1NC(CC(=O)c1ccccc1)C(=O)OCC(=O)c1ccc(Br)cc1 (stereo unspecified) | inactive
CC(N=C(NS(=O)(=O)c1ccc(Cl)cc1)c1ccccc1)C(=O)O (stereo unspecified) | inconclusive: 126 µM [inhibitor, single point]
O=C(O)c1[nH]c2ccccc2c1CC(=O)N1CCN(c2ccccc2)CC1 | inconclusive: 89.1 µM [inhibitor, partial curve, poor fit]
Cn1nnc(NC(=O)c2cccc(OCc3ccccc3)c2)n1 | inconclusive: 112 µM [inhibitor, partial curve, poor fit]
COC(=O)c1sc(N2C(=O)C(O)=C(C(=O)c3ccc(C)o3)C2c2ccco2)nc1C (stereo unspecified) | inconclusive: 2.82 µM [inhibitor, full curve, poor fit]
CCCC(C)C(=O)Nc1nc(C)c(-c2csc(Nc3ccccc3OC)n2)s1 (stereo unspecified) | active: 44.7 µM
Cc1ccc(C(=O)N2CCC(Oc3ccc(C(=O)N(C)C)cn3)CC2)cc1F | inconclusive: 20 µM [inhibitor, full curve, poor fit]
Cc1ccc(NC(=O)CCNS(=O)(=O)c2cc(Br)cnc2N)cc1Cl | inconclusive: 3.16 µM [inhibitor, full curve, poor fit]
COc1cc(O)c2c(c1)/C=C/CCC/C(=N\O)CCC[C@H](C)OC2=O | inactive
CCOC(=O)/C(C#N)=C\c1cc(OC)c(OC)cc1[N+](=O)[O-] | inconclusive: 39.8 µM [inhibitor, full curve, poor fit]
CCc1ccc(OCC(=O)Nc2ccc(-c3nc4ncccc4o3)cc2)cc1 | inconclusive: 126 µM [inhibitor, partial curve, poor fit]
CC(C)c1ccc(NC(=O)c2nc3ccccc3nc2N2CCOCC2)cc1 | inconclusive: 100 µM [inhibitor, partial curve, poor fit]
CCN(CC)S(=O)(=O)c1ccc(C(=O)NCC(c2cccs2)N2CCOCC2)cc1 (stereo unspecified) | inconclusive: 5.62 µM [inhibitor, full curve, poor fit]
COc1cc(C(=O)NCc2ccc(S(N)(=O)=O)cc2)ccc1OCC(=O)N1CCOCC1 | inactive
Cc1ccc2c(c1C)NC(=O)CC2c1ccc(Cl)cc1Cl (stereo unspecified) | inconclusive: 39.8 µM [inhibitor, partial curve, poor fit]
Cc1ccc2c(c1)nnn2C1CCN(CC(=O)N2c3ccccc3CC2C)CC1 (stereo unspecified) | inconclusive: 79.4 µM [inhibitor, partial curve, poor fit]
O=C(CCn1nc(-c2ccc(Cl)cc2)c2ccccc2c1=O)N1CCCC1 | inactive
O=C(CC1N=C2c3ccccc3N=C(SCc3cccc(F)c3)N2C1=O)NCc1ccc2c(c1)OCO2 (stereo unspecified) | inconclusive: 22.4 µM [inhibitor, partial curve, poor fit]
O=C(CCCCn1c(=O)c2ccccc2n(CC(=O)Nc2ccc(F)cc2)c1=O)NCc1ccco1 | inactive

Not a retest: three of the compounds above.
Structure (SMILES) | Potency
CCc1ccc(OCC(=O)Nc2ccc(-c3nc4ncccc4o3)cc2)cc1 | inconclusive: 126 µM [inhibitor, partial curve, poor fit]
CC(C)c1ccc(NC(=O)c2nc3ccccc3nc2N2CCOCC2)cc1 | inconclusive: 100 µM [inhibitor, partial curve, poor fit]
CCN(CC)S(=O)(=O)c1ccc(C(=O)NCC(c2cccs2)N2CCOCC2)cc1 (stereo unspecified) | inconclusive: 5.62 µM [inhibitor, full curve, poor fit]

(cont.)

Structure (SMILES) | Potency
O=C1CCC2(CCN(c3ncc(F)cn3)CC2)CN1CC1CCCO1 (stereo unspecified) | inactive
Cc1c(-c2nc(N)nc(Nc3ccccc3F)n2)oc2ccccc12 | inconclusive: 56.2 µM [inhibitor, partial curve, poor fit]
O=[N+]([O-])c1cccc(COc2ccc(CO)cc2)c1 | inconclusive: 0.447 µM [inhibitor, full curve, poor fit]
Cc1cc(O)ccc1N/C=C(\C#N)c1nc2ccccc2o1 | inactive
O=C(O)c1ccc(NC(=O)c2cn(-c3ccccc3)nc2-c2ccc(Br)cc2)cc1 | inconclusive: 126 µM [inhibitor, single point] and inconclusive: 50.1 µM [inhibitor, partial curve, poor fit]
CCn1cc(S(=O)(=O)N2CCCC(Cc3nncn3CC3CC3)C2)cn1 (stereo unspecified) | inconclusive: 25.1 µM [inhibitor, partial curve, poor fit]
COc1ccc(CCNC(=O)c2ccccc2NC(=O)CN2CCN(c3ccccc3O)CC2)cc1 | inactive
Cc1ccc2nc(-c3ccc(N)cc3)sc2c1 | inactive
O=C(CSC(=S)N1CCOCC1)Nc1ncc2c(n1)CCCC2=O | inconclusive: 112 µM [inhibitor, single point]
CCCc1cc(=O)oc2c(C)c(OC(C)C(=O)NCc3cccnc3)ccc12 (stereo unspecified) | inactive
COc1cccc(CNC(=O)C(=O)Nc2ccc3nc4n(c(=O)c3c2)CCCCC4)c1 | inconclusive: 141 µM [inhibitor, partial curve, poor fit]
CC(Oc1ccccc1)C(=O)N1CCN(c2ncccn2)CC1 (stereo unspecified) | inactive
O=[N+]([O-])c1cc([N+](=O)[O-])c2cccnc2c1Oc1ccccc1O | inconclusive: 22.4 µM [inhibitor, partial curve, poor fit]
O=C(O)c1ccc(N/N=C/c2ccc(-c3ccccc3)cc2)cc1 | inconclusive: 35.5 µM [inhibitor, partial curve, poor fit]
COc1ccc(C(=O)N2CCCN(c3cc(-c4ccc(F)cc4)[nH]n3)CC2)cc1OC | inactive
CCc1ccc(C(=O)Nc2cc(CN3CCN(C)CC3)cc(C(F)(F)F)c2)cc1C#Cc1cnc2ccnn2c1 | inconclusive: 4.85 µM [inhibitor, partial curve, poor fit]
Cc1ccc(N2CCN(C(=O)c3cc(S(=O)(=O)N4CCCCC4)c[nH]3)CC2)c(C)c1 | inconclusive: 89.1 µM [inhibitor, partial curve, poor fit]
Oc1ccc(CN2CCCCC2)c2cccnc12 | inconclusive: 6.31 µM [inhibitor, full curve]
CCN(CC)c1ccc(NC(=O)c2cc(Cl)ccc2OC)cc1 | inconclusive: 31.6 µM [inhibitor, partial curve, poor fit]
CCOC(=O)c1ccc(S(=O)(=O)Nc2ccccc2-c2nnc3n2CCCCC3)cc1 | inconclusive: 5.01 µM [inhibitor, full curve, poor fit]
